# Laboratory results published in the supplement of paper PMC8728848.
# The other results are listed elsewhere or left out.
# B1: Drgal1 (Danio rerio) (protein)
# chain: MAGVLIQNMSFKVGQTLTITGVPKPDSTNFAINIGHSPEDIALHMNPRFDAHGDQCTIVCNSFQSGSWCEEHRDDNFPFIQDKEFQIKITFTNEEFLVTLPDGSEIHFPNRQGSEKYKYMYFEGEVRIQGVEIK
# Tests used:
# Assay in all cases: glycan array binding signal (z-score within array); higher = stronger binding
# Details in all cases: glycan notation: IUPAC condensed, linker removed
# [1] = biological target: Gal(b1-4)GlcNAc(b1-2)Man(a1-6)[GlcNAc(b1-2)Man(a1-3)]Man(b1-4)GlcNAc(b1-4)GlcNAc
# Summary of the method: (§1)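 Glycan array data came from 3228 arrays in the Consortium for Functional Glycomics database, and only arrays with an available protein sequence were kept. Glycan names were put into IUPAC-condensed notation, and columns mapping to the same glycan were averaged. The binding signal is a within-array Z-score, averaged across arrays of one protein sequence run at different concentrations or buffers and across linkers. A negative Z-score can be read as non-binding.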
# [2] = biological target: Gal(b1-4)GlcNAc(b1-2)Man(a1-6)[Man(a1-3)]Man(b1-4)GlcNAc(b1-4)GlcNAc
# Summary of the method: as §1
# [3] = biological target: Gal(b1-4)GlcNAc(b1-2)[Gal(b1-4)GlcNAc(b1-4)]Man(a1-3)[Gal(b1-4)GlcNAc(b1-2)Man(a1-6)]Man(b1-4)GlcNAc(b1-4)GlcNAc
# Summary of the method: as §1
# [4] = biological target: Gal(b1-4)GlcNAc(b1-2)[Gal(b1-4)GlcNAc(b1-4)]Man(a1-3)[Gal(b1-4)GlcNAc(b1-2)[Gal(b1-4)GlcNAc(b1-6)]Man(a1-6)]Man(b1-4)GlcNAc(b1-4)GlcNAc
# Summary of the method: as §1
# [5] = biological target: Gal(b1-4)GlcNAc(b1-2)[Gal(b1-4)GlcNAc(b1-4)]Man(a1-3)[GlcNAc(b1-4)][Gal(b1-4)GlcNAc(b1-2)Man(a1-6)]Man(b1-4)GlcNAc(b1-4)GlcNAc
# Summary of the method: as §1
# [6] = biological target: Gal(b1-4)GlcNAc(b1-2)[Gal(b1-4)GlcNAc(b1-4)]Man(a1-3)[GlcNAc(b1-4)][Gal(b1-4)GlcNAc(b1-2)[Gal(b1-4)GlcNAc(b1-6)]Man(a1-6)]Man(b1-4)GlcNAc(b1-4)GlcNAc
# Summary of the method: as §1
# [7] = biological target: Gal(b1-4)GlcNAc(b1-2)[Gal(b1-4)GlcNAc(b1-6)]Man(a1-6)[Gal(b1-4)GlcNAc(b1-2)Man(a1-3)]Man(b1-4)GlcNAc(b1-4)GlcNAc
# Summary of the method: as §1
# [8] = biological target: Gal(b1-4)GlcNAc(b1-2)[Gal(b1-4)GlcNAc(b1-6)]Man(a1-6)[Gal(b1-4)GlcNAc(b1-2)Man(a1-3)]Man(b1-4)GlcNAc(b1-4)[Fuc(a1-6)]GlcNAc
# Summary of the method: as §1
# [9] = biological target: Gal(b1-4)GlcNAc(b1-2)[Gal(b1-4)GlcNAc(b1-6)]Man(a1-6)[GlcNAc(b1-4)][Gal(b1-4)GlcNAc(b1-2)Man(a1-3)]Man(b1-4)GlcNAc(b1-4)GlcNAc
# Summary of the method: as §1
# [10] = biological target: Gal(b1-4)GlcNAc(b1-2)[Gal(b1-4)GlcNAc(b1-6)]Man(a1-6)[GlcNAc(b1-4)][Gal(b1-4)GlcNAc(b1-2)[Gal(b1-4)GlcNAc(b1-4)]Man(a1-3)]Man(b1-4)GlcNAc(b1-4)[Fuc(a1-6)]GlcNAc
# Summary of the method: as §1
# [11] = biological target: Gal(b1-4)GlcNAc(b1-3)Gal(b1-3)GalNAc
# Summary of the method: as §1
# [12] = biological target: Gal(b1-4)GlcNAc(b1-3)Gal(b1-3)GlcNAc
# Summary of the method: as §1
# [13] = biological target: Gal(b1-4)GlcNAc(b1-3)Gal(b1-4)Glc
# Summary of the method: as §1
# [14] = biological target: Gal(b1-4)GlcNAc(b1-3)Gal(b1-4)GlcNAc
# Summary of the method: as §1
# [15] = biological target: Gal(b1-4)GlcNAc(b1-3)Gal(b1-4)GlcNAc(b1-2)Man(a1-3)[Gal(b1-4)GlcNAc(b1-3)Gal(b1-4)GlcNAc(b1-2)Man(a1-6)]Man(b1-4)GlcNAc(b1-4)GlcNAc
# Summary of the method: as §1
# [16] = biological target: Gal(b1-4)GlcNAc(b1-3)Gal(b1-4)GlcNAc(b1-2)Man(a1-3)[Gal(b1-4)GlcNAc(b1-3)Gal(b1-4)GlcNAc(b1-2)Man(a1-6)]Man(b1-4)GlcNAc(b1-4)[Fuc(a1-6)]GlcNAc
# Summary of the method: as §1
# [17] = biological target: Gal(b1-4)GlcNAc(b1-3)Gal(b1-4)GlcNAc(b1-2)[Gal(b1-4)GlcNAc(b1-3)Gal(b1-4)GlcNAc(b1-6)]Man(a1-6)[Gal(b1-4)GlcNAc(b1-3)Gal(b1-4)GlcNAc(b1-2)Man(a1-3)]Man(b1-4)GlcNAc(b1-4)GlcNAc
# Summary of the method: as §1
# [18] = biological target: Gal(b1-4)GlcNAc(b1-3)Gal(b1-4)GlcNAc(b1-2)[Gal(b1-4)GlcNAc(b1-3)Gal(b1-4)GlcNAc(b1-6)]Man(a1-6)[Gal(b1-4)GlcNAc(b1-3)Gal(b1-4)GlcNAc(b1-2)Man(a1-3)]Man(b1-4)GlcNAc(b1-4)[Fuc(a1-6)]GlcNAc
# Summary of the method: as §1
# [19] = biological target: Gal(b1-4)GlcNAc(b1-3)Gal(b1-4)GlcNAc(b1-3)Gal(b1-4)GlcNAc
# Summary of the method: as §1
# [20] = biological target: Gal(b1-4)GlcNAc(b1-3)Gal(b1-4)GlcNAc(b1-3)Gal(b1-4)GlcNAc(b1-2)Man(a1-3)[Gal(b1-4)GlcNAc(b1-3)Gal(b1-4)GlcNAc(b1-3)Gal(b1-4)GlcNAc(b1-2)Man(a1-6)]Man(b1-4)GlcNAc(b1-4)GlcNAc
# Summary of the method: as §1
# [21] = biological target: Gal(b1-4)GlcNAc(b1-3)Gal(b1-4)GlcNAc(b1-3)Gal(b1-4)GlcNAc(b1-2)Man(a1-3)[Gal(b1-4)GlcNAc(b1-3)Gal(b1-4)GlcNAc(b1-3)Gal(b1-4)GlcNAc(b1-2)Man(a1-6)]Man(b1-4)GlcNAc(b1-4)[Fuc(a1-6)]GlcNAc
# Summary of the method: as §1
# [22] = biological target: Gal(b1-4)GlcNAc(b1-3)Gal(b1-4)GlcNAc(b1-3)Gal(b1-4)GlcNAc(b1-2)[Gal(b1-4)GlcNAc(b1-3)Gal(b1-4)GlcNAc(b1-3)Gal(b1-4)GlcNAc(b1-6)]Man(a1-6)[Gal(b1-4)GlcNAc(b1-3)Gal(b1-4)GlcNAc(b1-3)Gal(b1-4)GlcNAc(b1-2)Man(a1-3)]Man(b1-4)GlcNAc(b1-4)[Fuc(a1-6)]GlcNAc
# Summary of the method: as §1
binder,measurement,setting,value
B1,glycan array binding signal (z-score),[1],0.241
same,glycan array binding signal (z-score),[2],0.259
same,glycan array binding signal (z-score),[3],0.1
same,glycan array binding signal (z-score),[4],0.427
same,glycan array binding signal (z-score),[5],-0.015
same,glycan array binding signal (z-score),[6],0.784
same,glycan array binding signal (z-score),[7],-0.131
same,glycan array binding signal (z-score),[8],0.501
same,glycan array binding signal (z-score),[9],0.922
same,glycan array binding signal (z-score),[10],0.026
same,glycan array binding signal (z-score),[11],-0.119
same,glycan array binding signal (z-score),[12],-0.67
same,glycan array binding signal (z-score),[13],0.641
same,glycan array binding signal (z-score),[14],-0.154
same,glycan array binding signal (z-score),[15],0.292
same,glycan array binding signal (z-score),[16],0.997
same,glycan array binding signal (z-score),[17],0.864
same,glycan array binding signal (z-score),[18],1.92
same,glycan array binding signal (z-score),[19],0.325
same,glycan array binding signal (z-score),[20],1.03
same,glycan array binding signal (z-score),[21],1.4
same,glycan array binding signal (z-score),[22],1.34

# Two entries from above, set out differently.
binder	measurement	setting	value
B1	glycan array binding signal (z-score)	[14]	-0.154
same	glycan array binding signal (z-score)	[15]	0.292
